Some entries share one result that the patent states for a list of compounds. For at least one compound, name, drawing or mass did not settle the structure.
Key:
[1] = target: human IgG1 (Homo sapiens, UniProt P01857); experiment: SPR binding to human IgG1
[2] = target: human IgG2 (Homo sapiens, UniProt P01859); experiment: SPR binding to human IgG2

By UniProt entry, the sequences of proteins in these tests, tags left out. Residues count along the entry.
UniProt P01859, 1-324 limits assumed: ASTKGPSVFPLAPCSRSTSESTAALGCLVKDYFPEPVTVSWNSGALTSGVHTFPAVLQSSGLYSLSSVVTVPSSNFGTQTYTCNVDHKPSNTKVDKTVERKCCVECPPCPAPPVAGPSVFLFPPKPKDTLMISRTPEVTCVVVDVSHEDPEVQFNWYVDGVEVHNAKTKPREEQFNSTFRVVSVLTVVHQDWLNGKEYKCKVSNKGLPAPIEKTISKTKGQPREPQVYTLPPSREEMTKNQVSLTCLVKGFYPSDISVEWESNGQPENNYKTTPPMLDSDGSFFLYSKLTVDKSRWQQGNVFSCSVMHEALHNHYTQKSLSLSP

In the case of `CCCCC[C@@H]1NC(=O)[C@H](CCCNC(=N)N)NC(=O)[C@H](C)NC(=O)CSC[C@@H](C(=O)NCCOCCOCCOCCOCCOCCOCCn2nnc3c2CCC2C(CC3)C2COC(=O)N2CCC(C(=O)NCC(=O)N[C@H](CCC(=O)N[C@H](CCC(=O)N[C@H](CCC(=O)NCCCCCCCCCCCC(=O)O)C(=O)N[C@H](CCC(=O)N[C@H](CCC(=O)NCC(=O)NCC(=O)N[C@@H](CC(=O)O)C(=O)N[C@H]3CSSC[C@@H](C(=O)N[C@H](C(=O)O)[C@@H](C)O)NC(=O)[C@H](Cc4c[nH]c5ccccc45)NC(=O)[C@H](C(C)C)NC(=O)[C@H](CC(C)C)NC(=O)[C@H](CCC(=O)O)NC(=O)CNC(=O)[C@H](CC(C)C)NC(=O)[C@H](Cc4c[nH]cn4)NC(=O)[C@H](Cc4c[nH]c5ccccc45)NC(=O)[C@H](C)NC3=O)C(=O)O)C(=O)O)C(=O)O)C(=O)O)CC2)NC(=O)[C@H](CC(=O)O)NC(=O)[C@H](CCCCC)NC(=O)[C@H](Cc2ccc(-c3ccccc3)cc2)NC(=O)[C@H](CC(C)C)NC(=O)[C@H](C(C)C)NC(=O)CNC(=O)[C@H](CC(=O)O)NC(=O)[C@H](Cc2c[nH]cn2)NC(=O)[C@H](Cc2ccc(O)cc2)NC1=O` (some centres unmarked) [I-9], the Kd [1] is reported as 10 to 20 nM and the Kd [2] is reported as 10 to 20 nM.
